Assay results from publication PMC12040169 (PLOS Biology, 2025).
Some of the results follow.

Test system: T1, CTL2-GFP (C. trachomatis L2/434/Bu, GFP-expressing)
T1 construct: L2/434/Bu, GFP-expressing
Design: species or system HeLa; Intracellular C. trachomatis growth in HeLa cells, bulk GFP fluorescence relative to DMSO
Settings: bulk GFP, single well; 28.5 h, 10 µM; inhibitor

Compared with `c1ccc(COc2ccccc2-c2cc(NCCc3ccccn3)ncn2)cc1` [CBK037826], `O=C(CN1C(=O)S/C(=C\c2ccc(OCc3ccccc3)cc2)C1=O)c1ccccc1` [CBK264636] is lower in “% of control remaining” value: 185.94% for the first, 119.788% for the second.

Going from `Nc1ncc(-c2ccncc2)nc1-c1cccc2c1oc1ccccc12` [CBK063889] to `Cc1c(C(=O)Nc2cccc(-c3nc4ccccc4s3)c2)sc2nc[nH]c(=O)c12` [CBK285825], the “% of control remaining” value falls from 235.987% to 125.971%.

Compared with `CN(C)CCCNc1nc(-c2cccc(Cl)c2)nc2ccccc12` [CBK267284C], `Cc1nc2ccc(C(=O)NC(c3ccccc3)c3cccnc3)cc2[nH]1` (centres unmarked) [CBK283259] is lower in “% of control remaining” value: 137.3% for the first, 103.121% for the second.

First: COC(=O)[C@@H]1Cc2ncn(Cc3ccc(OC)cc3)c2CN1C(=O)c1ccc(C#N)cc1 [CBK288982]
Second: Cn1c(=O)c2c(ncn2Cc2ccc(C#N)cc2)n(C)c1=O [CBK134217]
The “% of control remaining” value of the first is higher: 125.675% for the first, 77.8198% for the second.

Going from `O=C(/C=C/c1cccnc1)Nc1ccccc1N1CCNCC1` [CBK034136T] to `O=C(CCCOc1ccccc1)Nc1cccc(N2CCNCC2)c1` [CBK028290T], the “% of control remaining” value rises from 82.7221% to 119.564%.

Going from `O=C(NCCCC1CCOC1)c1[nH]nc2c1CCCCC2` (centres unmarked) [CBK283154] to `Cc1ccc(OCC(=O)Nc2sc3c(c2C(N)=O)CCCCC3)c([N+](=O)[O-])c1` [CBK268148], the “% of control remaining” value rises from 119.305% to 119.889%.

Compared with `Cc1cc(-c2ccc(=O)n(CCNC(=O)c3cccs3)n2)c(C)o1` [CBK284461], `CN(C)C(=O)Cn1c(=O)n(Cc2cccs2)c2ncccc21` [CBK283902] is higher in “% of control remaining” value: 140.249% for the first, 153.209% for the second.

Going from `CC(C)NC(=O)c1cc([C@H]2CC[C@H](CNC(=O)Cn3cccn3)CC2)nc2ccccc12` [CBK285859] to `Cc1cccc(OCC(C)NC(=O)N2CCCC2c2cnn(C)c2)c1` (centres unmarked) [CBK304100], the “% of control remaining” value rises from 96.7249% to 132.884%.

First: CC(NC(=O)c1cccc2ccccc12)c1ccc2ccccc2c1 (centres unmarked) [CBK267646]
Second: COc1cccc(C(NC(=O)C2COc3c(cccc3OC)C2)c2ccccc2)c1 (centres unmarked) [CBK285736]
The “% of control remaining” value of the first is higher: 128.137% for the first, 106.786% for the second.

First: COc1cc(-c2cc(N(C)CCN(C)C)n3nccc3n2)cc(OC)c1OC [CBK037181]
Second: CN(C)CCN(C)c1nc(-c2ccc(C(C)(C)C)cc2)cn2ccnc12 [CBK066477]
The “% of control remaining” value of the first is lower: 87.8455% for the first, 188.838% for the second.

Going from `Cc1ccc(Cl)cc1NC(=O)c1cnc2scc(C)n2c1=O` [CBK287464] to `COCCNC(=O)c1sc2ncn(CC(=O)Nc3ccccc3OC)c(=O)c2c1C` [CBK071846], the “% of control remaining” value falls from 124.307% to 115.521%.

First: CC(C)(C)c1[nH]c2ncccc2c1CN1CCCC(CO)C1 (centres unmarked) [CBK285342]
Second: CC(C)(C)Nc1c(C2CCCN(C(=O)C3CC3)C2)nc2ccccn12 (centres unmarked) [CBK284759]
The “% of control remaining” value of the first is lower: 120.452% for the first, 132.816% for the second.

Going from `CN(C)CCNc1nc(-c2cncnc2)cnc1N` [CBK063661] to `COCCNc1nccnc1-c1cnc(OC)nc1OC` [CBK088558], the “% of control remaining” value falls from 186.659% to 102.127%.

Going from `CN(CC(=O)O/N=C(\N)c1cccnc1)S(=O)(=O)c1ccccc1` [CBK267684] to `Oc1cccnc1CCc1ccccc1` [CBK026334C], the “% of control remaining” value falls from 136.843% to 106.509%.

Compared with `O=C(CSc1nc(Nc2ccccc2)nc(N2CCOCC2)n1)Nc1ccc2c(c1)OCO2` [CBK268320], `OC(CN1CCN(Cc2ccc3c(c2)OCO3)CC1)c1ccccc1` (centres unmarked) [CBK074759] is lower in “% of control remaining” value: 166.367% for the first, 145.855% for the second.

Going from `CCN(CC(=O)Nc1c(F)cccc1F)S(=O)(=O)c1cccc(C#N)c1` [CBK306197] to `CS(=O)(=O)N(Cc1ccc(Cl)cc1)c1ccc(C(=O)Nc2ccccc2C(F)(F)F)cc1` [CBK263988], the “% of control remaining” value falls from 110.48% to 100%.

First: COc1ccc(C2(NCc3c(C)nc4sccn34)CC2)cc1 [CBK282835]
Second: Cc1ccc(C2(O)CCN(Cc3cn(C)nc3C)CC2)cc1 [CBK282753]
The “% of control remaining” value of the first is higher: 118.179% for the first, 106.409% for the second.

Compared with `CN1CCC(N(C)C2CCN(Cc3ccccc3)CC2)CC1` [CBK261925], `CC(C)(O)C#Cc1ccc(C(=O)N2CCN(Cc3ccccc3)CC2)cc1` [CBK263100] is lower in “% of control remaining” value: 117.637% for the first, 100% for the second.

Compared with `Cc1ccc(S(=O)(=O)CCOc2nc3c(C(F)(F)F)cc(C4CC4)nc3o2)cc1` [CBK269267], `O=S(=O)(Nc1cccc(Cl)c1)c1ccc(OC(F)(F)F)cc1` [CBK044769] is lower in “% of control remaining” value: 113.827% for the first, 72.6764% for the second.

First: CCOc1ccc(-c2cnc(SCC(=O)O)nc2N)cc1 [CBK269928]
Second: N#Cc1ccsc1NC(=O)CSc1nc[nH]n1 [CBK267221]
The “% of control remaining” value of the first is lower: 86.9209% for the first, 119.783% for the second.

Going from `Cc1cccc(OCCn2cncc2-c2cn(C)nc2C)c1C` [CBK281458] to `Cn1c(Cc2nn(C)c(=O)c3ccccc23)nnc1SCC(=O)C(C)(C)C` [CBK010985], the “% of control remaining” value rises from 68.5042% to 81.6258%.

Going from `C/C(=N\N=C1\N=C(O)C(CC(=O)NCc2ccccc2)S1)c1ccco1` (centres unmarked) [CBK263698] to `O=C(NCCNCc1ccccc1)c1ccccc1` [CBK012505], the “% of control remaining” value falls from 119.636% to 99.8821%.

First: COc1cc(/C=N/c2ccc3oc(-c4cccc(I)c4)nc3c2)ccc1OC(=O)c1ccc(Cl)cc1Cl [CBK261239]
Second: Cc1ccc(-c2nnc3s/c(=C\c4ccc([N+](=O)[O-])cc4)c(=O)n23)cc1 [CBK264882]
The “% of control remaining” value of the first is lower: 104.991% for the first, 116.454% for the second.

Going from `CCOc1ccsc1C(=O)N1CCN(CC)CC1` [CBK200250] to `C=C(C)CN1CCN(C(=O)C2Cc3cc(Cl)ccc3O2)CC1` (centres unmarked) [CBK282639], the “% of control remaining” value falls from 157.58% to 133.421%.

First: O=C(O)c1cc(S(=O)(=O)N2CCCCC2)c(Cl)cc1N1CCCCC1 [CBK263408]
Second: Cc1cn2nc(N3CCN(S(=O)(=O)c4ccccc4[N+](=O)[O-])CC3)sc2n1 [CBK298288]
The “% of control remaining” value of the first is higher: 127.034% for the first, 103.709% for the second.

Compared with `Cc1ccc(S(=O)(=O)N2C[C@H]3C[C@H](NC(=O)C(C)C)[C@H]3C2)cc1` [CBK285317], `CC(C)C(CCC(=O)Nc1ccccc1[N+](=O)[O-])C(=O)O` (centres unmarked) [CBK268356] is higher in “% of control remaining” value: 144.626% for the first, 144.735% for the second.

Compared with `Cc1ccc2nsnc2c1NC(=O)COc1ccccc1[N+](=O)[O-]` [CBK263779], `Cc1ccccc1CSCC(=O)Nc1c[nH]c(=O)[nH]c1=O` [CBK269790] is lower in “% of control remaining” value: 126.395% for the first, 105.423% for the second.

Compared with `CCC1CCCCN1C(=O)c1ccc(C)s1` (centres unmarked) [CBK084526], `Cc1ccc2[nH]c(C3CCCCN3C(=O)c3cscn3)nc2c1` (centres unmarked) [CBK283999] is lower in “% of control remaining” value: 141.279% for the first, 89.0479% for the second.

Going from `COCC1CCCN1C(=O)c1cnn2c(C)c(Cc3ccc(OC)cc3)c(C)nc12` (centres unmarked) [CBK162190] to `Cc1cc(C(=O)NC2CCCc3c2cnn3-c2ccc(F)cc2)on1` (centres unmarked) [CBK282310], the “% of control remaining” value falls from 120.929% to 71.1096%.

Compared with `CN1C(=O)COc2ccccc2C/C=C/C[C@@H]2[C@H]1CCCN2S(=O)(=O)c1cccnc1` [CBK292067], `O=C(NCc1cccnc1)C(=O)Nc1cc2c3c(c1)CCC(=O)N3CCC2` [CBK287728] is lower in “% of control remaining” value: 109.284% for the first, 99.639% for the second.

Going from `Cc1cc(C(=O)Nc2c(C)noc2C)n[nH]1` [CBK200395] to `COC(=O)c1sc2[nH]c(CN(C)Cc3ccco3)nc(=O)c2c1C` [CBK306047], the “% of control remaining” value rises from 110.535% to 114.026%.

First: Cc1ccc(NC(=O)OCC(F)(F)C(F)F)cc1Cl [CBK026548]
Second: O=C(CCc1ccc(O)c(O)c1)NNC(=S)Nc1ccccc1C(F)(F)F [CBK267104]
The “% of control remaining” value of the first is lower: 130.989% for the first, 161.866% for the second.

Going from `CCOc1ccc(OCC)c2c1n(C)c(SC)[n+]2C` [CBK005720G] to `Cn1c(CSCc2ccccc2)nnc1SCC(=O)c1ccc(Br)cc1` [CBK266565], the “% of control remaining” value rises from 23.7715% to 140.932%.

First: Cc1cc(NC(=O)C2CCN(c3ncccc3C#N)CC2)no1 [CBK305689]
Second: CCCN(CC1CC1)C(=O)Cn1c([C@@H]2CCCO2)cc2cccnc21 [CBK282871]
The “% of control remaining” value of the first is higher: 122.2% for the first, 91.1219% for the second.

Going from `Cc1nc(C)c(-c2cnc(NS(=O)(=O)c3ccc(Cl)cc3)nc2)s1` [CBK005935] to `COCc1nnc(NS(=O)(=O)c2ccc(Br)cc2)s1` [CBK045526], the “% of control remaining” value rises from 100% to 120.802%.

Compared with `O=c1c(Oc2ccc3ccccc3c2)c(C(F)(F)F)oc2c(CN3CCOCC3)c(O)ccc12` [CBK264487], `O=[N+]([O-])c1ccc(O)c(C(C#Cc2ccccc2)N2CCOCC2)c1` (centres unmarked) [CBK262741] is lower in “% of control remaining” value: 132.532% for the first, 124.272% for the second.

First: CCCCCc1c(C)nc(-c2ccccn2)nc1O [CBK017441]
Second: COc1ccccc1-c1nc2ccccn2c1CO [CBK173210]
The “% of control remaining” value of the first is lower: 76.106% for the first, 106.736% for the second.

Going from `CC1(C)CC(/N=C(\c2ccccc2)c2ccc(O)cc2O)CC(C)(C)N1` [CBK262004] to `Cc1ccc(C2CCCN2C(=O)c2ccc(=O)n(CC(=O)Nc3ccc(F)cc3)c2)cc1C` (centres unmarked) [CBK286088], the “% of control remaining” value rises from 96.4073% to 99.0435%.

First: O=C(CNS(=O)(=O)c1ccc(Cl)c(Cl)c1Cl)N1CCOCC1 [CBK034472]
Second: CC(=O)c1ccc(-c2cnc(N)c(N3CCN(C)CC3)n2)s1 [CBK063432]
The “% of control remaining” value of the first is lower: 101.662% for the first, 195.188% for the second.

First: O=C1C=C(c2ccc([N+](=O)[O-])cc2)Nc2nonc2N1 [CBK261487]
Second: CC(C)N(C)C(=O)Cc1csc(N)n1 [CBK014608]
The “% of control remaining” value of the first is lower: 108.809% for the first, 177.947% for the second.
